## Assay results

From PubChem BioAssay record AID1159506 (NCATS, 2015).

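Luminescence from an EWS-FLI1 target-promoter (NR0B1) reporter, set against a CMV-promoter reporter, two days after silencing single genes in TC32 Ewing sarcoma cells.
Each siRNA was applied at 20 nM.
A z-score of the log NR0B1-over-CMV signal, less the median of siRNAs with the same seed; more negative means a stronger specific loss of the NR0B1 reporter.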

This is part of the screen; most of the strongest results are not listed here.
Sequences are the guide (antisense) strand, without overhang.

Sequence	target gene	seed-corrected z-score
AAUAGUUCCAAGCCUUCUC	PITPNC1	-0.7862
UUCGGAAAUUCAUUGGUUG	PCSK5	-0.1665
AAAGGCAUAGGCAAAUAUC	ZMYND19	1.115
AAUGGAACAACUCGUUUAC	TMPRSS11A	-0.0132
UGCUUAACUACUGGAGUAC	WAC	-0.4013
UCCUUUAAGACGAGGGUCU	PRAMEF10	0.07216
UAGUUUGCUAAAUUCGUUG	PSD3	0.8266
UCGCUCAUAAAGCUUAUCC	PURB	0.362
UAACGCAUUAUCGUAACCG	ENPP5	1.129
AACUCUUGCAAAAUUGUUC	CPT2	-0.4558
UGUGAAUAAAGGGACUUAC	GFRA4	-1.634
UCCAAUAUUAGUAGGGUUC	PEX7	0.5519
UGUUGAUCGAUACUCACUC	FBXO36	-1.002
UCGGCAUCAAUGCCUGUUC	LOC729562	-0.2551
AAGGGUAGCACAGAUAUGA	KAAG1	-0.3181
ACUGAGAUCUGUUCAUUGC	EML2	-0.2803
UAACUUGUACUGUUGUAGG	CORIN	-0.7139
UACUAGUCCAACAUAUUGC	FLJ37786	0.7763
UCCUGCACAGUCACAGUCC	METTL12	-0.5947
UAAACUCACCCACUUUACC	SEPT7P2	0.177
UCCGCUCAUAGUGUUCACG	MAP3K13	-0.3386
AAUGUAGAAGGCACCCACG	SERINC2	0.479
UCUUGGGUAAAGAAAUGAC	NUDT5	-0.03293
UGCGGGCAAAUUUCAGCUG	ZNF197	-0.8392
UUCAGGUUCUUCACGAGGG	NCK2	0.7374
UCCGUUCCAGUAGCUGUUG	MRPL38	-0.4565
UCUUCAUCAGCAUAAGUGC	ZNF398	-0.401
UAAGCUGCAACAUGAACGA	VSIG10	-0.9019
AAAAUCGAAAUUCCACUUG	CDKN1B	-0.5234
UCGUGUGUGACGUAGCUGC	DYNLL2	-1.193
UACUGUUUUGGAGUCCGUG	ST14	-0.05786
UUGUAGAAUGUUAAUAGUC	XKR6	1.715
AUCAUUACAAGCAACUGUC	S100Z	0.1413
UACUGGUUCAAAUACUUUG	DEPDC4	-1.739
UUAUCGAUUCUCUCAACCC	IPO9	0.696
UCUCUUUCUACGACGACAC	WEE1	1.117
AAAUAGAUAACACUCUUCC	RPRD1A	-0.4585
UUCCAAGUAGUCAAAGGCC	TSPAN33	0.1374
UUUGGUGAAGACCUCAUCC	NENF	-0.2154
UCAGUUUCACGUAGUACUG	DDX39B	0.08569
UUCCGAUUCAUGAUCCGGG	C19orf44	0.01278
UAGCGGAACACGAAGAGCA	DERL3	0.4617
UGUUAUAUUGAUAUGGUUC	DCAF6	0.004321
UUCAGUUCGACAACGAGUU	CCDC127	0.2394
AUUCUUGAAAUCUCAAGCA	MZT1	0.3415
UUAGAUGUAAUUGUCCAAG	SEL1L2	1.982
UCCUGCAUCACGCUGGUGU	HMCN2	-0.3669
UUCCCGUGCACAGUGGACA	CLDN15	0.03017
UUCUAUAACAGCAUAAGGC	MUL1	-0.1267
UAAAAAUUCAUCCUUAUCC	C20orf24	0.2735
UAAGUGGUCACUAUGAAUC	BLOC1S5	0.2138
AACAGGUCAGUAGUGAUGC	DDIT4	-0.4212
UCCGUUUUCAGUUGCUAUC	SVOP	-0.08875
UUGGGUGUCACACUAUUGC	MAEL	-1.296
AUUCUUCAAAUUACUCUCG	SIGMAR1	-0.7666
UGGUAAUCUUGCAUAUUCC	KAT6B	-0.7005
UCUUGUUGCAUCUCAAAGC	IVNS1ABP	-0.03435
UCUUCAGUCAAGAAGGAUG	FLJ33360	0.328
UCACUUCGCACUGUCACAU	GPHA2	0.2943
UUUCCUAAAUACUUGUUCC	CAPSL	-0.37
UACGGCAUUCUGUUCCUGC	MBD4	-0.6618
AGAGUUGGAAGUACUCUGG	CD24	-0.119

Repeated from the top, 6 entries:

| Sequence | target gene | seed-corrected z-score |
|---|---|---|
| `AAUAGUUCCAAGCCUUCUC` | PITPNC1 | -0.7862 |
| `UUCGGAAAUUCAUUGGUUG` | PCSK5 | -0.1665 |
| `AAAGGCAUAGGCAAAUAUC` | ZMYND19 | 1.115 |
| `AAUGGAACAACUCGUUUAC` | TMPRSS11A | -0.0132 |
| `UGCUUAACUACUGGAGUAC` | WAC | -0.4013 |
| `UCCUUUAAGACGAGGGUCU` | PRAMEF10 | 0.07216 |